Results are given in words; binding and its absence hold for the method and conditions named.

For the test, the target named is Lis1 (S. cerevisiae Pac1) (S. cerevisiae) (UniProt P39946). The experiment in a line: cross-linking; 0.5 μM protein ± 0.05% glutaraldehyde, 5 min, ambient temperature; 30 mM HEPES pH 7.2, 50 mM potassium acetate; SDS-PAGE; control pretreated with 4% LDS; both purified.

B1: Lis1 (S. cerevisiae Pac1) (protein, UniProt P39946 1-494)
chain: MTNWQQQLPLTDTQKNELDKSVLRYLNWNYKQTVRHEHAQDYESVRHAIVTLSGFLLQESVDRQEFISNNDTSNESMVDIDELLLPKKWNSIVRLQKKIIELEQNTETLVSQIKDLNTQVSELAQFKPTTSNGTSAHNVLKWIPRNLPSCLINVESSVTSVKLHPNLPIVFVATDHGKLYAFDLFNYTIPLASLQSHTKAITSMDVLFTNYTNSSKKNYLVIVTASKDLQIHVFKWVSEECKFQQIRSLLGHEHIVSAVKIWQKNNDVHIASCSRDQTVKIWDFHNGWSLKTFQPHSQWVRSIDVLGDYIISGSHDTTLRLTHWPSGNGLSVGTGHEFPIEKVKFIHFIEDSPEIRFRTPSTDRYKNWGMQYCVSASRDRTIKIWEIPLPTLMAHRAPIPNPTDSNFRCVLTLKGHLSWVRDISIRGQYLFSCADDKSVRCWDLNTGQCLHVWEKLHTGFVNCLDLDVDFDSNVTPRQMMVTGGLDCKSNVFMR
Regarding B1, the binding result was “no binding (condition: pretreated with 4% LDS (denatured))”.

Source of the values: paper PMC3438448.
